Experimental data published in PubChem BioAssay AID248 (DTP/NCI, 2004).
The list is a part of this screen's results and no random one: it gathers tests that were run many times, whatever their T/C, doses with no T/C, and many T/C values between a quarter and a half above the control. Further doses and runs are listed elsewhere. T/C: endpoint of the treated group in % of that of the vehicle group. Some doses have a count of surviving animals in place of a T/C: the source holds a T/C of zero for them, seemingly a mark for toxic or unscored doses. Some survivor counts are full or nearly so, which does not show that the dose was tolerated: survival well below the control is almost never listed, so the zero probably covers shortened survival too. Survivors were counted at the toxicity check, usually on the fifth day, unless a day is given; later deaths do not show. Schedules are NCI's codes, taken here to give the interval after Q, in days (D) or hours (H), and the number of doses after X. Some schedule codes hold Z or #, which are not explained here. For survival time, the PubChem record calls one and a half times the control and up active, and a quarter to a half above the control has no call in these data; cut-offs in other NCI protocols can differ. Brackets with × count equal records among those shown. Some entries were tested several times; the values are given in rising order. Some T/C values are followed by the survivors on the day toxicity was checked, most often the fifth; where none is given, no animal had died by that day.

Test system: L1210 leukemia ip in BDF1 mice, survival T/C
Assay: NCI In Vivo Anticancer Drug Screen. Data for tumor model L1210 Leukemia (intraperitoneal) in B6D2F1 (BDF1) mice
Details: T/C endpoint: mean survival time, higher T/C = longer survival
[1] = dose: 0.9 mg/kg/injection, schedule: Q03HX008 (ip), vehicle: carboxymethylcellulose (CMC)
[2] = dose: 2.0 mg/kg/injection, schedule: Q03HX024 (ip), vehicle: carboxymethylcellulose (CMC)
[3] = dose: 8.0 mg/kg/injection, schedule: Q03HX024 (ip), vehicle: carboxymethylcellulose (CMC)

N=C(N)SCc1c2ccccc2c(CSC(=N)N)c2ccccc12
T/C (dose: 0.1 mg/kg/injection, schedule: Q01DX Z (ip), vehicle: carboxymethylcellulose (CMC)): 128 % of control
T/C (dose: 0.4 mg/kg/injection, schedule: Q01DX Z (ip), vehicle: carboxymethylcellulose (CMC)): 126 % of control
T/C (dose: 0.45 mg/kg/injection, schedule: Q01DX Z (ip), vehicle: saline): 135 % of control
survivor count (dose: 0.5 mg/kg/injection, schedule: Q03HX024 (ip), vehicle: carboxymethylcellulose (CMC)): 2 of 10
T/C (dose: 0.78 mg/kg/injection, schedule: Q07DX003 (ip), vehicle: saline): 130 % of control
T/C (dose: 0.8 mg/kg/injection, schedule: Q01DX Z (ip), vehicle: carboxymethylcellulose (CMC)): 125 and 126 % of control
T/C [1]: 138 % of control
survivor count [1]: 4 of 10
T/C (dose: 0.9 mg/kg/injection, schedule: Q03HX008 (ip), vehicle: other): 134 % of control (2×)
T/C (dose: 1.0 mg/kg/injection, schedule: Q01DX Z (ip), vehicle: saline): 141 % of control
T/C (dose: 1.2 mg/kg/injection, schedule: Q03DX004 (ip), vehicle: saline): 136 % of control
T/C (dose: 1.25 mg/kg/injection, schedule: Q01DX Z (ip), vehicle: carboxymethylcellulose (CMC)): 125 % of control
T/C (dose: 1.25 mg/kg/injection, schedule: Q#A X Z (ip), vehicle: carboxymethylcellulose (CMC)): 128 % of control
T/C (dose: 1.5 mg/kg/injection, schedule: Q01DX Z (ip), vehicle: carboxymethylcellulose (CMC)): 125 and 134 % of control
T/C (dose: 1.56 mg/kg/injection, schedule: Q07DX003 (ip), vehicle: saline): 137 % of control
T/C (dose: 1.8 mg/kg/injection, schedule: Q01DX Z (ip), vehicle: saline): 144 % of control
T/C [2]: 126 % of control
survivor count [2]: 6 of 10
T/C (dose: 2.0 mg/kg/injection, schedule: Q03HX024 (ip), vehicle: other): 128 and 131 % of control
survivor count (dose: 2.0 mg/kg/injection, schedule: Q## X008 (ip), vehicle: carboxymethylcellulose (CMC)): 2 of 10
T/C (dose: 2.3 mg/kg/injection, schedule: Q01DX Z (ip), vehicle: saline): 126 and 130 % of control
T/C (dose: 2.4 mg/kg/injection, schedule: Q03DX004 (ip), vehicle: saline): 133 % of control
T/C (dose: 2.5 mg/kg/injection, schedule: Q01DX001 (ip), vehicle: carboxymethylcellulose (CMC)): 139 % of control
T/C (dose: 2.5 mg/kg/injection, schedule: Q01DX Z (im), vehicle: carboxymethylcellulose (CMC)): 141 % of control
T/C (dose: 2.5 mg/kg/injection, schedule: Q01DX Z (ip), vehicle: carboxymethylcellulose (CMC)): 125 % of control
T/C (dose: 2.5 mg/kg/injection, schedule: Q01DX Z (sc), vehicle: carboxymethylcellulose (CMC)): 129 % of control
T/C (dose: 2.5 mg/kg/injection, schedule: Q#A X Z (ip), vehicle: carboxymethylcellulose (CMC)): 133 % of control (2×)
survivor count (dose: 2.7 mg/kg/injection, schedule: Q03HX008 (ip), vehicle: carboxymethylcellulose (CMC)): 5 of 10
T/C (dose: 2.7 mg/kg/injection, schedule: Q03HX008 (ip), vehicle: other): 132 % of control
T/C (dose: 3.0 mg/kg/injection, schedule: Q01DX Z (ip), vehicle: carboxymethylcellulose (CMC)): 140 % of control
T/C (dose: 3.1 mg/kg/injection, schedule: Q03HX024 (ip), vehicle: carboxymethylcellulose (CMC)): 134 % of control
T/C (dose: 3.1 mg/kg/injection, schedule: Q03HX040 (ip), vehicle: carboxymethylcellulose (CMC)): 129 % of control [7 of 8 alive]
T/C (dose: 3.13 mg/kg/injection, schedule: Q07DX003 (ip), vehicle: saline): 131 % of control
T/C (dose: 3.5 mg/kg/injection, schedule: Q01DX Z (ip), vehicle: saline): 145 % of control
T/C (dose: 4.0 mg/kg/injection, schedule: Q## X003 (ip), vehicle: carboxymethylcellulose (CMC)): 132 % of control
T/C (dose: 4.3 mg/kg/injection, schedule: Q01DX001 (ip), vehicle: carboxymethylcellulose (CMC)): 138 % of control
T/C (dose: 4.7 mg/kg/injection, schedule: Q03DX004 (ip), vehicle: saline): 127 % of control
T/C (dose: 4.7 mg/kg/injection, schedule: Q03DX Z (ip), vehicle: saline): 141 % of control
T/C (dose: 5.0 mg/kg/injection, schedule: Q01DX Z (im), vehicle: carboxymethylcellulose (CMC)): 135 % of control
T/C (dose: 5.0 mg/kg/injection, schedule: Q01DX Z (ip), vehicle: carboxymethylcellulose (CMC)): 131 % of control
T/C (dose: 5.0 mg/kg/injection, schedule: Q01DX Z (sc), vehicle: carboxymethylcellulose (CMC)): 140 % of control
T/C (dose: 5.0 mg/kg/injection, schedule: Q#A X Z (ip), vehicle: carboxymethylcellulose (CMC)): 128 and 146 % of control
T/C (dose: 5.3 mg/kg/injection, schedule: Q01DX Z (ip), vehicle: saline): 149 % of control
T/C (dose: 6.0 mg/kg/injection, schedule: Q01DX009 (ip), vehicle: saline): 127 and 135 % of control
T/C (dose: 6.0 mg/kg/injection, schedule: Q06HX068 (ip), vehicle: carboxymethylcellulose (CMC)): 131 % of control
T/C (dose: 6.2 mg/kg/injection, schedule: Q03HX024 (ip), vehicle: carboxymethylcellulose (CMC)): 130 % of control
T/C (dose: 6.2 mg/kg/injection, schedule: Q03HX040 (ip), vehicle: carboxymethylcellulose (CMC)): 144 % of control
T/C (dose: 6.25 mg/kg/injection, schedule: Q07DX Z (ip), vehicle: saline): 138 % of control
T/C (dose: 7.0 mg/kg/injection, schedule: Q03DX006 (ip), vehicle: carboxymethylcellulose (CMC)): 130 % of control
survivor count (dose: 7.0 mg/kg/injection, schedule: Q## X008 (ip), vehicle: carboxymethylcellulose (CMC)): 1 of 10
T/C (dose: 8.0 mg/kg/injection, schedule: Q01DX Z (ip), vehicle: saline): 137 % of control
T/C [3]: 133 % of control
survivor count [3]: 3 of 10
T/C (dose: 8.0 mg/kg/injection, schedule: Q08DX002 (ip), vehicle: clinical formulation): 136 and 140 % of control
survivor count (dose: 8.1 mg/kg/injection, schedule: Q03HX008 (ip), vehicle: carboxymethylcellulose (CMC)): 6 of 10
T/C (dose: 8.1 mg/kg/injection, schedule: Q03HX008 (ip), vehicle: other): 139 % of control
T/C (dose: 8.5 mg/kg/injection, schedule: Q01DX001 (ip), vehicle: carboxymethylcellulose (CMC)): 141 % of control
T/C (dose: 8.5 mg/kg/injection, schedule: Q07DX003 (ip), vehicle: carboxymethylcellulose (CMC)): 134 % of control
T/C (dose: 9.4 mg/kg/injection, schedule: Q03DX Z (ip), vehicle: saline): 132 % of control
T/C (dose: 10.0 mg/kg/injection, schedule: Q01DX Z (im), vehicle: carboxymethylcellulose (CMC)): 132 % of control
T/C (dose: 10.0 mg/kg/injection, schedule: Q#A X Z (ip), vehicle: carboxymethylcellulose (CMC)): 135 % of control
T/C (dose: 12.0 mg/kg/injection, schedule: Q08DX002 (ip), vehicle: clinical formulation): 142 % of control
T/C (dose: 12.0 mg/kg/injection, schedule: Q08DX002 (ip), vehicle: saline): 136 % of control
T/C (dose: 12.5 mg/kg/injection, schedule: Q01DX001 (ip), vehicle: carboxymethylcellulose (CMC)): 129 % of control
T/C (dose: 12.5 mg/kg/injection, schedule: Q01DX Z (ip), vehicle: carboxymethylcellulose (CMC)): 132 % of control [5 of 6 alive]
T/C (dose: 12.5 mg/kg/injection, schedule: Q03HX008 (ip), vehicle: saline): 130 % of control
T/C (dose: 12.5 mg/kg/injection, schedule: Q03HX024 (ip), vehicle: carboxymethylcellulose (CMC)): 136 % of control
T/C (dose: 12.5 mg/kg/injection, schedule: Q03HX040 (ip), vehicle: carboxymethylcellulose (CMC)): 136 % of control
T/C (dose: 15.0 mg/kg/injection, schedule: Q03DX006 (ip), vehicle: carboxymethylcellulose (CMC)): 127 and 141 % of control
T/C (dose: 16.0 mg/kg/injection, schedule: Q03HX024 (ip), vehicle: carboxymethylcellulose (CMC)): 131 % of control
T/C (dose: 16.0 mg/kg/injection, schedule: Q03HX024 (ip), vehicle: other): 145 % of control
T/C (dose: 16.0 mg/kg/injection, schedule: Q## X003 (ip), vehicle: carboxymethylcellulose (CMC)): 146 % of control
T/C (dose: 17.0 mg/kg/injection, schedule: Q01DX001 (ip), vehicle: carboxymethylcellulose (CMC)): 133 % of control
T/C (dose: 17.0 mg/kg/injection, schedule: Q07DX003 (ip), vehicle: carboxymethylcellulose (CMC)): 128 and 132 % of control
T/C (dose: 18.0 mg/kg/injection, schedule: Q08DX002 (ip), vehicle: clinical formulation): 133 % of control
T/C (dose: 18.0 mg/kg/injection, schedule: Q08DX002 (ip), vehicle: saline): 128 and 137 % of control
T/C (dose: 18.8 mg/kg/injection, schedule: Q03DX Z (ip), vehicle: saline): 143 % of control
T/C (dose: 20.0 mg/kg/injection, schedule: Q01DX006 (iv), vehicle: saline): 125 % of control
T/C (dose: 20.0 mg/kg/injection, schedule: Q01DX Z (im), vehicle: carboxymethylcellulose (CMC)): 138 % of control
survivor count (dose: 22.0 mg/kg/injection, schedule: Q## X008 (ip), vehicle: carboxymethylcellulose (CMC)): 0 of 10
T/C (dose: 25.0 mg/kg/injection, schedule: Q01DX005 (ip), vehicle: carboxymethylcellulose (CMC)): 126 % of control
T/C (dose: 25.0 mg/kg/injection, schedule: Q01DX009 (ip), vehicle: carboxymethylcellulose (CMC)): 147 % of control
survivor count (dose: 25.0 mg/kg/injection, schedule: Q01DX009 (ip), vehicle: clinical formulation): 4 of 6
T/C (dose: 25.0 mg/kg/injection, schedule: Q01DX Z (ip), vehicle: carboxymethylcellulose (CMC)): 129 % of control
T/C (dose: 25.0 mg/kg/injection, schedule: Q03HX008 (ip), vehicle: carboxymethylcellulose (CMC)): 139 % of control
T/C (dose: 25.0 mg/kg/injection, schedule: Q03HX024 (ip), vehicle: carboxymethylcellulose (CMC)): 147 % of control
T/C (dose: 25.0 mg/kg/injection, schedule: Q07DX Z (ip), vehicle: saline): 144 % of control
T/C (dose: 26.0 mg/kg/injection, schedule: Q08DX002 (ip), vehicle: clinical formulation): 149 % of control
T/C (dose: 26.0 mg/kg/injection, schedule: Q08DX002 (ip), vehicle: saline): 147 and 148 % of control
T/C (dose: 27.0 mg/kg/injection, schedule: Q01DX Z (ip), vehicle: saline): 127 % of control
T/C (dose: 30.0 mg/kg/injection, schedule: Q03DX006 (ip), vehicle: carboxymethylcellulose (CMC)): 138 % of control (2×)
survivor count (dose: 32.0 mg/kg/injection, schedule: Q03HX024 (ip), vehicle: carboxymethylcellulose (CMC)): 4 of 10
survivor count (dose: 32.0 mg/kg/injection, schedule: Q03HX024 (ip), vehicle: other): 10 of 10
T/C (dose: 35.0 mg/kg/injection, schedule: Q01DX001 (ip), vehicle: carboxymethylcellulose (CMC)): 138 % of control
T/C (dose: 35.0 mg/kg/injection, schedule: Q07DX003 (ip), vehicle: carboxymethylcellulose (CMC)): 133 and 134 % of control
T/C (dose: 37.5 mg/kg/injection, schedule: Q03DX Z (ip), vehicle: saline): 139 and 143 % of control
